For experiment [1], the target named is endogenous cellular inhibitor of apoptosis protein 1 (cIAP1) (UniProt Q13490). The experiment can be described thus: co-immunoprecipitation from HEK-293T lysate: endogenous cIAP1 immunoprecipitated with anti-cIAP1, SIVA detected by Western blot.
The next experiment addresses T1, FLAG-TRAF2 (UniProt Q12933).
T1 sequence (looked up): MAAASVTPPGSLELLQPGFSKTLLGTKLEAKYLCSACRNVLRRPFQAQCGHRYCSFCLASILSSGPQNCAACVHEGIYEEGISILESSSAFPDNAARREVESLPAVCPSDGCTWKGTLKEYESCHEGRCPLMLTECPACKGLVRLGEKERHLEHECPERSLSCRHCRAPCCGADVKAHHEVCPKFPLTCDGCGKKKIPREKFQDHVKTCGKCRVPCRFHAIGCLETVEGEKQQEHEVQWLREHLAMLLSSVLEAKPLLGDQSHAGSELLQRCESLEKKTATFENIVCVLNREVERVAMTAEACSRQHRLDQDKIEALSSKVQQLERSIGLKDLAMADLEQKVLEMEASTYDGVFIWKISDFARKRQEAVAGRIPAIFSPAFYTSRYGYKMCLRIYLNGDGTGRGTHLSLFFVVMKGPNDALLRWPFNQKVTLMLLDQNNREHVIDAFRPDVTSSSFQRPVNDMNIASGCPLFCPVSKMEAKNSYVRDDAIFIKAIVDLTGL
Description: co-immunoprecipitation from HEK-293T lysate: FLAG-TRAF2 immunoprecipitated with anti-FLAG, SIVA detected by Western blot with anti HIS.

Protein sequences, listed by entry. Tags and fused reporters are not part of them.
UniProt Q13490: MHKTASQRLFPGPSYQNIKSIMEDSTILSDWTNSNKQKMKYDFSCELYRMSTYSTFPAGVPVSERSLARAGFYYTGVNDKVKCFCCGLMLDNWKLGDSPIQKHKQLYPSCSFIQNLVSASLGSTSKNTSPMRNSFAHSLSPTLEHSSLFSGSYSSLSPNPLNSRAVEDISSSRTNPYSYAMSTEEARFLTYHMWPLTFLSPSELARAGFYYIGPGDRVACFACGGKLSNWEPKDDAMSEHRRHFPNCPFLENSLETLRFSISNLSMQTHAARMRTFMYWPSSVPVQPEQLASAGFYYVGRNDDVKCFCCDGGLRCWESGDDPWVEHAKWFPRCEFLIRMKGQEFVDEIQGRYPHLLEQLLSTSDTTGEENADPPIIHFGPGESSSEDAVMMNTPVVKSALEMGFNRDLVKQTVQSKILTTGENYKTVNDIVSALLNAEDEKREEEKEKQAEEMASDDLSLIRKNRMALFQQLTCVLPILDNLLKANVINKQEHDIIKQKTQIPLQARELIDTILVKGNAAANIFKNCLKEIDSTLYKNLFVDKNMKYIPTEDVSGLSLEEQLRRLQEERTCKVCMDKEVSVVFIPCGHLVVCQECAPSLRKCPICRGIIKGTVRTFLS

These are yes or no findings as the source states them, for the method shown. In cells and extracts the contact can be indirect. Some binding calls cover weakened binding; strength is not graded here. Sequences can lack the tags named with a protein.

B1: FLAG-SIVA3 (protein, not shown: small tags and cut ends)
chain: MPKRSCPFADVAPLQLKVRVSQRELSRGVCAERYSQEVFAAVTCTRKCCAPAVPCSRPEAGSSRLPSPGATPCMAAFPGRALGVHTELWGRREGCLLHVLFCILMTE
Regarding B1, the binding result in experiment [1] is reported as “binds”.

B2: HIS-SIVA3 (protein, not shown: small tags and cut ends)
chain: MPKRSCPFADVAPLQLKVRVSQRELSRGVCAERYSQEVFAAVTCTRKCCAPAVPCSRPEAGSSRLPSPGATPCMAAFPGRALGVHTELWGRREGCLLHVLFCILMTE
For B2, the binding result in the experiment with FLAG-TRAF2 is “binds”.

Source of the values: US20110035817A1.
